Amino acid sequences for entries named in this document (tags omitted).
UniProt Q9LS94: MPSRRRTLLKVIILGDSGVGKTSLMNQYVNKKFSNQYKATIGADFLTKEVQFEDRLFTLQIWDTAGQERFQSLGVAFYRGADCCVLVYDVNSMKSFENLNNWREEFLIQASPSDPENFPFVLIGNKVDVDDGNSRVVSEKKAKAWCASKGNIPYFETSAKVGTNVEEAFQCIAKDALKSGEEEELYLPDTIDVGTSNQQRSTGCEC

According to paper doi:10.1101/2021.09.29.461190:

Tests used:
Experiment in all cases: affinity purification with mass spectrometry
[1] = biological target: T1, YFP-RABA2a (Arabidopsis thaliana) (UniProt O04486)
T1 sequence: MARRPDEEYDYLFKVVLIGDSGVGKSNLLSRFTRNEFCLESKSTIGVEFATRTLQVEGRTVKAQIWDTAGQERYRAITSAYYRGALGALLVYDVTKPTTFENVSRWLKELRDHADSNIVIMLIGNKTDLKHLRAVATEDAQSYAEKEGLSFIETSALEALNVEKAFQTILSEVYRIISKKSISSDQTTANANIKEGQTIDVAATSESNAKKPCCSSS

[2] = biological target: T2, YFP-RABA5c (Arabidopsis thaliana) (UniProt P28187)
T2 sequence: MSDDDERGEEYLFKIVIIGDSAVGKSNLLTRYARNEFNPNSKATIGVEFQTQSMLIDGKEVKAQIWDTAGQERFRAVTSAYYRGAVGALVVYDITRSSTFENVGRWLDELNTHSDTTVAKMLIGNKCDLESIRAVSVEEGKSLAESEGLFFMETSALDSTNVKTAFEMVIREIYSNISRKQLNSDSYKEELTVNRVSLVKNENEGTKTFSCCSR

[3] = biological target: YFP-RABG3f (Arabidopsis thaliana) (UniProt Q9LS94)

- binding [1]: no binding
- binding [2]: no binding
- binding [3]: binds
B1: NET4B, endogenous in Arabidopsis roots (protein, UniProt Q84VY2 1-517)
chain: MASSTAQSKKQFKRSMTKKSHSWWWDSHNCPKNSKWLAENLEKMDDRVNHMLKLIEEDADSFAKKAQMYFQKRPELIQLVEEFYRMYRALAERYDQASGELQKNHTSEIQSQSSLEISSPTKEKLSRRQSSHKEEEDSSSLTDSGSDSDHSSANDEDGDEALIRRMAELELELQETKQKLLLQQESVDGDNNVDLLHKITTYEGELKEANEKMRMHEDEIANLKNQLQSFMSFDTEDHLGAEQKSVDLDKEDTKEDAVATKVLALEEELSIAKEKLQHFEKETYSLKNELEIGKAAEEKLKSLQHELELAQRDADTYINKLNAEKKEVLKLQERLAMVKTSLQDRDNEIRALKTAVSDAEQKIFPEKAQIKGEMSKMLEERSQLGEQLRELESHIRLIKEEKAETEEKLRGGTEKISGMRDESNVLREEIGKREEKIKETEKHMEELHMEQVRLRRRSSELTEEVERTRVSASEMAEQKREAIRQLCMSLDHYRDGYDRLWRVVAGHKSKRVVVLST

Results are given in words; binding and its absence hold for the method and conditions named. Binding seen in cells or lysates may run through a third protein. A yes stands for co-enrichment or nearness to the bait. Other partners may have been found. For part of these data: A no says only that the protein was not detected with the bait. For part of these data: Tags and fused reporters may be left off the sequences shown.
